Here are results for 2 substances from article PMC10629828.

Chains of the proteins cited; added tags and fusions are not shown. Lines headed by an entry give the natural chain unless they say otherwise; changes in a name come on top.
UniProt Q9BJF5: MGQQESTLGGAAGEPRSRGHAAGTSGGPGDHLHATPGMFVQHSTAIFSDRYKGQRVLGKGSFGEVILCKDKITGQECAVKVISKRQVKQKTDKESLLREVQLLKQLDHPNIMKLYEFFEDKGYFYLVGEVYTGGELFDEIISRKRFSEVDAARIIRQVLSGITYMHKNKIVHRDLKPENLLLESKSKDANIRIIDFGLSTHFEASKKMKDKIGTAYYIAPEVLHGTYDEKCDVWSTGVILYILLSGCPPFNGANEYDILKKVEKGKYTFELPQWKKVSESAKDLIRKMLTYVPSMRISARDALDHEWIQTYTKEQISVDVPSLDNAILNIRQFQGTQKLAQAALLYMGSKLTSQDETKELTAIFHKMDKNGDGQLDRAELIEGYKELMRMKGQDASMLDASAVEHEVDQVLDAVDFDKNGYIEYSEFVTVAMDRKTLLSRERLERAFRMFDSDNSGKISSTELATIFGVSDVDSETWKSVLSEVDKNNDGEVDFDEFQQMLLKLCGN
UniProt A0A125YK01: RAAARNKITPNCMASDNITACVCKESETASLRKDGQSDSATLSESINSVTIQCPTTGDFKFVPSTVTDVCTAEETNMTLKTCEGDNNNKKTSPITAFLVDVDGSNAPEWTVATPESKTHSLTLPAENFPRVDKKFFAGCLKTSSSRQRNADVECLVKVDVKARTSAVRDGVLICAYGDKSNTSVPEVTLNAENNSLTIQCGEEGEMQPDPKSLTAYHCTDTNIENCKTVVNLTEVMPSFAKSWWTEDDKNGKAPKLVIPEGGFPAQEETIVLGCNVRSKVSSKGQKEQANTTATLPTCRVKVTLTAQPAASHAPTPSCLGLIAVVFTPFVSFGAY
UniProt Q969A8: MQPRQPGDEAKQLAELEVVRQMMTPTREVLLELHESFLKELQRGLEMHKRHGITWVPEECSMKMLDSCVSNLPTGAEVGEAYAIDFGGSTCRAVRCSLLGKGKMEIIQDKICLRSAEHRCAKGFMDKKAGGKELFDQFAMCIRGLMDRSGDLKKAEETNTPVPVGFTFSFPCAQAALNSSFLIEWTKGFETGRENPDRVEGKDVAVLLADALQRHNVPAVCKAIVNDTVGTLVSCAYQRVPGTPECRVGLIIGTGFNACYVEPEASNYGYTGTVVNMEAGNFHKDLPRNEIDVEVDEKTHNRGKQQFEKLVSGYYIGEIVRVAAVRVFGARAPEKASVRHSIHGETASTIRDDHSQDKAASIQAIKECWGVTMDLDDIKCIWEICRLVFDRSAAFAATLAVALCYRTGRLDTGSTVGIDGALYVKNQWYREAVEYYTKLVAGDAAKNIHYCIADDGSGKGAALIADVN

This assay concerns the target HA-tagged WT CDPK1 complement (cWT), Ca2+-dependent protein kinase 1 (Toxoplasma gondii) (UniProt Q9BJF5). Briefly: affinity purification with mass spectrometry; anti-HA magnetic beads, 1 hr rotating at room temperature; hypotonic lysate (10 mM HEPES pH 7.5, no detergent) brought to 150 mM NaCl; parasites treated with auxin to deplete endogenous mAID-tagged CDPK1; cWT and cMut against untagged TIR1 control; DIA-MS, n = 2.

These are yes or no findings as the source states them, for the method shown. In cells and extracts the contact can be indirect. A yes stands for co-enrichment or nearness to the bait. Other partners may have been found.

As for “SRS36D (TGGT1_292280) (from UniProt A0A125YK01)”, the binding entry is “binds”.

Consider “hexokinase (TGGT1_265450) (from UniProt Q969A8) (enzyme)”, for which the binding result is “binds”.
